In all, about 200,000 compounds went through this assay and about 25 (0.01%) were called active. Inconclusive means that the source gave no clear call. Such entries were picked first, then a sample of the others. The call rests on the fitted dose curve; in most records, active means well fitted inhibition curve with a large enough effect in the signal ratio, with a control signal flat (not every such curve was filed as active); inconclusive means small, poorly fitted or top-dose-only effect, or effect the other way, or a change in a side signal; inactive means flat fitted curve, though single readings scatter; the % refers to the signal ratio. A potency beside an inconclusive call is a rough fit, not a confirmed value.
Experiment: qHTS Assay for Modulators of Lamin A Splicing
Details: HeLa LMNA splicing GFP/RFP minigene ratio, 48 h; ratio change, negative = inhibition: at 46.1 µM (top of the series) unless noted
Summary of the method: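 S3 HeLa stable clones carrying a lamin A-EGFP splicing minigene plus DsRed2 were seeded at 600 cells/well in Opti-MEM with 2% FBS, pin-dosed and incubated 48 h at 37°C. Acumen cytometry (488 nm) gave the GFP/RFP total-intensity ratio.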
On the % scale 0 is the no-effect control and ±100 the full control effect; potency means the concentration at half of the fitted maximal effect.

Row | SMILES | ratio change, negative = inhibition | Potency
1 | Cc1cc(N2CCCCC2)nc(NCc2ccccc2)n1 | inconclusive: -11.5% | 
2 | CCOC(=O)C1=C(O)CSC1=Nc1ccccc1 | inconclusive: 13.9% | 
3 | Cn1cnnc1SCCNS(=O)(=O)c1ccccc1 | inconclusive: -6.63% | 
4 | CCC(c1nnnn1CCc1ccccc1)N(Cc1ccco1)Cc1cc2cccc(C)c2[nH]c1=O (stereo not given) | inactive | 
5 | CC[C@H](C)[C@H](NC(N)=O)C(=O)Nc1ccc2c(c1)OCO2 | inconclusive: -13.2% [at 9.22 µM] | 
6 | CCOC(=O)CNC(=O)CSc1cc(C)nc2ccc(OC)cc12 | inconclusive: 19.3% [at 46 µM] | 
7 | Cc1cc(/C=N/n2c(COc3ccccc3)nc3ccccc3c2=O)c(O)c([N+](=O)[O-])c1 | inconclusive: -47.1% | 
8 | Cc1ccc(NC(=O)c2[nH]cnc2C(=O)NN)cc1 | inconclusive: -31.6% [at 46 µM] | 
9 | Cc1ccc(-n2cnc3cc(C(=O)NCc4ccc(F)cc4)ccc32)c(C)c1 | inconclusive: 14% [at 46 µM] | 
10 | COc1cc(OC)c(C2C(C#N)=C(N)OC3=C2C(=O)CC(C)(C)C3)cc1OC (stereo not given) | inconclusive: -8.78% | 
11 | COCC(=O)Nc1ccccc1-c1ccccc1 | inconclusive: -1.01% [at 46 µM] | 
12 | O=c1c(=O)n(-c2ccccc2)ccn1Cc1c(F)cccc1Cl | inconclusive: 46.9% [at 46 µM] | 
13 | Cc1ccc2c(c1)c1c3n2CCN[C@H]3CCC1 | inconclusive: -10.7% | 
14 | O=C(CSc1nccc(=O)[nH]1)N1N=C2/C(=C/c3ccco3)CCCC2C1c1ccco1 (stereo not given) | inactive | 
15 | Cc1ccc(C(NC(=O)NCCCN2CCOCC2)=C(Cl)Cl)cc1F | inconclusive: -28.5% | 
16 | O=C(Nc1ccc2snnc2c1)N1CCOCC1 | inactive | 
17 | COCCCNC(=O)c1ccc2c(c1)nc(C)n2-c1cccc(C)c1 | inconclusive: -14.8% [at 46 µM] | 
18 | c1csc(Cn2nnnc2CN2CCN(c3nc4ccccc4s3)CC2)c1 |  | inconclusive: 35.5 µM [falling, single point]
19 | Nc1ccc(N2C(=O)c3ccccc3C2=O)c(Cl)c1 | inconclusive: -7.77% | 
20 | O=C(Nc1ccc(C(=O)OCc2cc(=O)n3nc(C4CC4)sc3n2)cc1)c1cccc(F)c1 | inactive | 
21 | Nc1nc(-c2ccccc2)c(-c2ccccc2)s1 | inactive | 
22 | O=C(Nc1ccc2oc(-c3ccccc3)nc2c1)c1ccco1 | inconclusive: -6.45% | 
23 | COc1cccc(C2NC(=O)NC(O)(C(F)(F)F)C2C(=O)c2cccnc2)c1OC (stereo not given) | inactive | 
24 | O=C(COc1ccccc1)Nc1nccs1 | inactive | 
25 | O=C(Nc1ccc(F)cc1)C1CCN(S(=O)(=O)c2ccc3c(c2)CCCN3C(=O)C2CCC2)CC1 | inactive | 
26 | CCNc1ncc2nc(-c3ccccc3)c(=O)n(C)c2n1 | inactive | 
27 | COc1cccc(OCC(=O)Nc2ccc(OC)c(OC)c2)c1 | inconclusive: -38% | 
28 | Cc1ccc(/C=C/C(=O)N2CCC(Cc3ccccc3)CC2)cc1 |  | inconclusive: 31.6 µM [fluorescent, single point]

2 compounds picked at random from the list so far:
Row | SMILES | ratio change, negative = inhibition | Potency
28 | Cc1ccc(/C=C/C(=O)N2CCC(Cc3ccccc3)CC2)cc1 |  | inconclusive: 31.6 µM [fluorescent, single point]
18 | c1csc(Cn2nnnc2CN2CCN(c3nc4ccccc4s3)CC2)c1 |  | inconclusive: 35.5 µM [falling, single point]

Next part.

Row | SMILES | ratio change, negative = inhibition | Potency
29 | COc1ccccc1CC(=O)Nc1ccc(Cl)cc1C(=O)O | inconclusive: -20% [at 46 µM] | 
30 | O=c1c2cc(NC(=S)NCCCN3CCC(Cc4ccccc4)CC3)ccc2nc2n1CCCCC2 | inconclusive: -21.4% [at 46 µM] | 
31 | O=C(/C=C/Nc1cccc([N+](=O)[O-])c1)c1cccs1 | inactive | 
32 | O=C(Nc1nc2n(n1)C(c1ccc(Cl)cc1)CC(c1ccc(Cl)cc1)N2)c1ccco1 (stereo not given) |  | inconclusive: 35.5 µM [falling, single point]
33 | CC(=O)Nc1ccc(-c2csc(NC(=O)C3CCN(S(=O)(=O)c4cccs4)CC3)n2)cc1 | inconclusive: -33.9% | 
34 | Nc1ccc2nc(-c3ccccc3)[nH]c2c1 | inactive | 
35 | CCCc1nc2oc3cc(OC)ccc3c(=O)c2c(=O)n1Cc1ccco1 | inactive | 
36 | CCOC(=O)C(=O)c1csc(NC(=O)CCSc2ccc(C)cc2)n1 | inconclusive: 20.7% [at 9.22 µM] | 
37 | Cc1cc(/C=N/n2c(COc3ccccc3C)nc3ccccc3c2=O)c(O)c([N+](=O)[O-])c1 | inconclusive: -12.7% | 
38 | O=C(Nc1ccc(F)cc1F)Nc1ccc(F)cc1F | inactive | 
39 | Cc1ccc(C)c(NC(=O)CSc2nnc(-c3cc4occc4n3C)n2-c2ccccc2C)c1 | inconclusive: -20.4% [at 46 µM] | 
40 | Cn1nnnc1SCCCNCc1cccc(OCc2ccccc2F)c1 | inactive | 
41 | CCc1nc2ccc(C(=O)NCc3ccc(N(C)C)cc3)cc2nc1CC | inconclusive: 12.6% [at 46 µM] | 
42 | OCCSc1nnc(Nc2ccccc2)s1 | inactive | 
43 | COc1cc(C2C(=O)N(C3CCCCCC3)CC(=O)N2Cc2ccccc2)ccc1OC(C)C (stereo not given) | inactive | 
44 | CC(=O)c1c(C)[nH]c(C2=NNC(=NC(C)(C)C)SC2)c1C | inconclusive: -30.1% [at 46 µM] | 
45 | OC(COCC(F)(F)C(F)(F)C(F)(F)C(F)F)Cn1c2ccc(Cl)cc2c2cc(Cl)ccc21 (stereo not given) |  | inconclusive: 35.5 µM [inhibitor, single point]
46 | Cc1ccc(Cl)cc1N1CCN(C(=O)c2cnn(C(C)(C)C)c2C2CCN(C(=O)OC(C)(C)C)CC2)CC1 | inconclusive: -13.2% [at 46 µM] | 
47 | O=c1c2c3c(sc2ncn1/N=C/c1ccco1)CCCC3 | inactive | 
48 | O=C(N/N=C/C=C\c1ccccc1[N+](=O)[O-])c1ccccn1 | inactive | 
49 | Cc1ccc(Cn2ccc(C3CC3)n2)cc1 | inconclusive: 16.3% [at 46 µM] | 
50 | CC(C)C(c1nnnn1C1CCCC1)N1CCN(c2ccccc2F)CC1 (stereo not given) | inconclusive: 4.06% | 
51 | Cc1cc(Br)c(S(=O)(=O)NCCN2CCOCC2)cc1C | inconclusive: 1.44% | 
52 | Cc1nn(-c2ccc(N3CCOCC3)nn2)c(C)c1CCC(=O)NCc1ccccc1 | inconclusive: 12.4% [at 46 µM] | 
53 | CN(C(=O)c1ccccc1)c1ccc(OCC(=O)NC2CCS(=O)(=O)C2)cc1 (stereo not given) | inactive | 
54 | Cc1cc(C)c(NC(=O)CSc2n[nH]c(-c3ccccc3Cl)n2)c(C)c1 | inconclusive: -2.8% [at 46 µM] | 
55 | COc1cccc(OC)c1C(=O)NNC(=O)c1ccccc1-n1cccc1 | inconclusive: 18.1% [at 46 µM] | 

— PubChem BioAssay AID1487 (National Center for Advancing Translational Sciences (NCATS), 2009)
